Results are given in words; binding and its absence hold for the method and conditions named. Binding seen in cells or lysates may run through a third protein. A yes stands for co-enrichment or nearness to the bait. Other partners may have been found. For part of these data: Where a sequence is shown, tags or fusion partners need not be part of it. One block for each molecule: values may come before it.
Legend:
[1] = molecular target: T1, Rubicon, human, endogenous (human (endogenous in THP-1 and colon)) (UniProt Q92622); experiment: affinity purification with mass spectrometry; IP with anti-Rubicon from fractionated THP-1 cells, followed by mass spectrometry
T1 sequence: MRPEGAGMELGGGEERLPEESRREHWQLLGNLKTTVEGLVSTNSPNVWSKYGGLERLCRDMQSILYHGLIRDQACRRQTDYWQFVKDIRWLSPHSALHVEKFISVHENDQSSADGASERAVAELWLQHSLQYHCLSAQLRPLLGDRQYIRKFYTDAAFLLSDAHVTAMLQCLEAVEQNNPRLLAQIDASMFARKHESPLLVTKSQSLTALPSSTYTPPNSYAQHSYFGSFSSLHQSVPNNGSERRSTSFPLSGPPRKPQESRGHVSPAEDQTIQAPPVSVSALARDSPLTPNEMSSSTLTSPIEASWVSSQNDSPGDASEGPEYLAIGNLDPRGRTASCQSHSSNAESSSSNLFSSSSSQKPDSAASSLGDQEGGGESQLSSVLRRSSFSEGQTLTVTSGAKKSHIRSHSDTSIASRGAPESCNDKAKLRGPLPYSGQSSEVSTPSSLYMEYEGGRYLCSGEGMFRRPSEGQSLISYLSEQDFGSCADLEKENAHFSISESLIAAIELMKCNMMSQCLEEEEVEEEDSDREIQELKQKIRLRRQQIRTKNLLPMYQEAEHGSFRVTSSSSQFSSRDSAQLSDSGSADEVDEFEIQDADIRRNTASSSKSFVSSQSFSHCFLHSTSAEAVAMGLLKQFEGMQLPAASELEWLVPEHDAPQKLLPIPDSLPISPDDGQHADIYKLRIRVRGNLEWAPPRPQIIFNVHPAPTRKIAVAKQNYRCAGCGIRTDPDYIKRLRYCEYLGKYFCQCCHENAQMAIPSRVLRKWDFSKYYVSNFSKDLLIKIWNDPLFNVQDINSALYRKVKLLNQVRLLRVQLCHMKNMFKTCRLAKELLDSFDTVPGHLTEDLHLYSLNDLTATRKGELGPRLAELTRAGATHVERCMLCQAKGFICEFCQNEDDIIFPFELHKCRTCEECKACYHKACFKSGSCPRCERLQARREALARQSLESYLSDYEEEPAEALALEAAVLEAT

[2] = molecular target: T2, Run/cysteine-rich-domain-containing Beclin1-interacting autophagy protein (Rubicon), mouse, endogenous (mouse (endogenous in BMDMs and colon)) (UniProt Q80U62); experiment: affinity purification with mass spectrometry; IP with anti-Rubicon (18 h, 4 °C) from cytosolic and mitochondrial fractions of BMDMs transduced with Ad-Vector or Ad-Rubicon; NP-40 buffer (50 mM HEPES pH 7.4, 150 mM NaCl, 1 mM EDTA, 1% NP-40); silver-stained bands excised and analysed by mass spectrometry
T2 sequence: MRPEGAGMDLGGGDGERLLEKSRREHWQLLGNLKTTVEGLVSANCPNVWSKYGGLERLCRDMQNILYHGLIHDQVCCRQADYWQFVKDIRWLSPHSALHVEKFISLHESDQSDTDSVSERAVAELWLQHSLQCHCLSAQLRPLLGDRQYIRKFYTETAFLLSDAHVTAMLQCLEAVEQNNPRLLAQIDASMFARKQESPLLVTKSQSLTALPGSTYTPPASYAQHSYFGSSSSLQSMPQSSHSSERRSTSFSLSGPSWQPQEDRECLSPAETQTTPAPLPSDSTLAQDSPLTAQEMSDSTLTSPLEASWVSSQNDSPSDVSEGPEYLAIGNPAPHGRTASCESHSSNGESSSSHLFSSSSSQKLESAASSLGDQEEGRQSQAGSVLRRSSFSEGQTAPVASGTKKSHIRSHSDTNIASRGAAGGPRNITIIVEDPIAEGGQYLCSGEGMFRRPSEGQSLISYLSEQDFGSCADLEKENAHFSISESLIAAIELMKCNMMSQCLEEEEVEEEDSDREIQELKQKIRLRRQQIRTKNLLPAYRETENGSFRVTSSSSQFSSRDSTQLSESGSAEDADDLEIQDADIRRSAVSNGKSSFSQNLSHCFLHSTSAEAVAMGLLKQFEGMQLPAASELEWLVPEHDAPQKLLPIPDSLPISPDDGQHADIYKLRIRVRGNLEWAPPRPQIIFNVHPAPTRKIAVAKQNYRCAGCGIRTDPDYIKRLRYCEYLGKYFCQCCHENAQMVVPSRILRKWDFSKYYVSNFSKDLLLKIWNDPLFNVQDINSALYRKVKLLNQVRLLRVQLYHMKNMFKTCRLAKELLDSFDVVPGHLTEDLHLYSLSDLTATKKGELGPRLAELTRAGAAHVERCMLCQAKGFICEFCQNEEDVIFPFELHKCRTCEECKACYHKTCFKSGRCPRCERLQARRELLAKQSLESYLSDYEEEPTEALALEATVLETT

[3] = molecular target: T3, full-length mouse Rubicon expressed from adenovirus (Ad-Rubicon) (mouse) (UniProt Q80U62); experiment: as above
T3 sequence: T2 sequence

- binding [1]: binds
Molecule: p22phox (CYBA), human, endogenous (from UniProt P13498 1-195)

- binding [2]: binds
- binding [3]: binds
B1: p22phox (cytochrome b-245 light chain, CYBA), mouse, endogenous (protein, UniProt Q61462 1-192)
chain: MGQIEWAMWANEQALASGLILITGGIVATAGRFTQWYFGAYSIAAGVLICLLEYPRGKRKKGSTMERCGQKYLTSVVKLFGPLTRNYYVRAALHFLLSVPAGFLLATILGTVCLAIASVIYLLAAIRGEQWTPIEPKPKERPQVGGTIKQPPTNPPPRPPAEVRKKPSEGEEEAASAGGPQVNPMPVTDEVV
